Where two headings read alike, the source gives them in different places. At least one compound was matched to its structure with a doubt left.
Key:
[1] = Formation of wortmannin from WmC20 conjugates monitored by HPLC
Method: The solutions were incubated in water bath at 37° C. and were analyzed at different time points with HPLC by injecting the solution (10 μL) together with 1 μL internal standard solution (containing 1 μg methyl 4-hydroxybezoate). The initial time point (0 hr) was taken before putting the tube in the water bath. HPLC gradients were adjusted to produce baseline separations. Before the injection, the samples were vortexed briefly and then spun down. Data using this method appear in FIG. 6.
Compounds (1.8 mg) and 4b (1.3 mg) (examples were weighted into the 1.5 mL tubes and dissolved in PBS buffer (pH 6.8, 400 μL). The solutions were incubated at 37° C. At different time point 20 μL solution was mixed with 1 μL internal standard solution in DMSO (containing 1 μg methyl 4-hydroxybenzoate) and analyzed by HPLC. The initial time point (0 hr) was taken before putting the tube in the water bath. Before the injection, the samples were vortexed briefly and then spun down.
The following HPLC methods were employed. HPLC (Varian Prostar 210 with a variable wavelength PDA 330 detector) employed reverse phase C18 columns (VYDAC, Cat.#: 218TP 1022 for synthesis; Varian, Cat. #: R0086200C5 for analysis) with water (Millipore, containing 0.1% trifloroacetic acid,) (buffer A) and acetonitrile (containing 20% buffer A) (buffer B) as elution buffer. System 1: buffer A/buffer B (80:20) isocratic for 5 minutes, linear gradient to buffer A/buffer B (20:80) over 40 minutes, then the gradient back to 80:20 in 5 minutes and isocratic for 5 minutes, flow: 4.9 ml/min, λmax: 418 nm (used for purification of 2a); System 2: buffer A/buffer B (80:20) isocratic for 5 minutes, linear gradient to buffer A (buffer B (20:80) over 25 minutes and then isocratic for 5 minutes, then the gradient back to 80:20 in 5 minutes and isocratic for 5 minutes, flow: 6.0 mi/min, λmax: 408 nm (used for purification of 2b); System 3: buffer A/buffer B (70:30) linear gradient to buffer A/buffer B (20:80) over 15 minutes, then gradient back to 70:30 in 3 minutes and isocratic for another 5 minutes, flow: 1.0 ml/min, λmax: 258 nm (System 4: buffer A/buffer B (99:1) linear gradient to buffer A/buffer B (40:60) over 46 minutes, then gradient back to […] in 5 minutes and isocratic for another 5 minutes, flow: 1.0 ml/min, λmax: 250 nm).

[2] = assay type: physicochemical; conditions: PBS
Method: The stability of compounds of the invention was obtained by the following method. […] The solutions were incubated at 37° C.
Stability data was fit to equation 1, which illustrates our treatment of the data for 2a ([…]) as shown in FIG. 2 with first order decay constants (kFOD) given in Table 1.

PI3K = assay: Inhibition of PI3K enzyme activity (32P ATP lipid phosphorylation, TLC); assay type: biochemical; conditions: compounds incubated 3 hours at 37° C. in PBS pH 6.8, then 30 minute PI3K incubation; read-out: Bioassay: PI3K IC50
Method: We incubated compounds for three hours at 37° C. in PBS, pH 6.8, followed a 30 minute incubation for PI3K activity using the assay system previously described which involves lipid phosphorylation by ^32P labeled ATP and thin layer chromatography, (see Yuan et al., Bioconjug. Chem. 16:669 (2005)).

Row | SMILES | K1 (wortmannin generation, fit to Equation 2) ([1]; PBS, pH 6.8, 37° C.) | Wm Generation By HPLC (3 hr, 37° C.) ([1]; percentage of wortmannin released after three hours in PBS) [%] | KFOD (95% confidence intervals) ([2]; 10 mM Proline, 37° C.) | KFOD (95% confidence intervals) ([2]; pH 6.8, 37° C.) | IC50 (PI3K) [nM] | Wortmannin release / formation seen by HPLC ([1]; PBS pH 6.8, 37° C., listed as 2b) | Wortmannin release / formation seen by HPLC ([1]; PBS, pH 6.8, 37° C.)
1 | COCC1OC(=O)C(=CN(C)CCCCCC(=O)O)C2=C(O)C(=O)C3=C(C(OC(C)=O)CC4(C)C(=O)CCC34)C21C (stereo not drawn) [Example 1, wortmannin C20-N(Me)-hexanoic acid] | 0.051 (0.045-0.056) hr^−1 | 10.4 | 0.065 (0.0062-0.068) hr^−1 | 0.080 (0.071-0.089) hr^−1 |  |  | 
2 | COCC1OC(=O)C(=CNCCCCCC(=O)O)C2=C(O)C(=O)C3=C(C(OC(C)=O)CC4(C)C(=O)CCC34)C21C (stereo not drawn) [Example 2, wortmannin C20-NH-hexanoic acid] |  |  | 0.0031 (0.0023-0.0038) hr^−1 | 0.0053 (0.0040-0.0067) hr^−1 | > 1000 | Undetectable | could not be detected

From US20090324489A1 (priority 2005, published 2009)
